The list shows a part of the results.

The test deals with T1, OsSMF1 (Oryza sativa, UniProt Q6ZLB0 1-436).
T1 sequence: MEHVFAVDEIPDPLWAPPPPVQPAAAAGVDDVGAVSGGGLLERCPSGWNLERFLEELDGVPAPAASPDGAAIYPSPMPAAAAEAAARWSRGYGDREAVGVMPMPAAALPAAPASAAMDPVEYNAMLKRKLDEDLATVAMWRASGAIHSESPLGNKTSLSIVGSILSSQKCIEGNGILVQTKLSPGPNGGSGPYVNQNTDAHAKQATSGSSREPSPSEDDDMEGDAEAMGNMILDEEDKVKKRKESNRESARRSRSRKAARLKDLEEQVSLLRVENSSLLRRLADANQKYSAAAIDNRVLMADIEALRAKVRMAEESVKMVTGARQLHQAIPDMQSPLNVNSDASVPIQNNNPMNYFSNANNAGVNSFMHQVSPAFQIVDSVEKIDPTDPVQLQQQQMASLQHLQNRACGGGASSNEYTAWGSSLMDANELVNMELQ
Put plainly: protein-binding microarray (RPBM); PBS, 2% BSA, 51.3 ng/ul salmon testes DNA, 50 uM zinc acetate, 200 nM TF, 25 C, 1 h; high values mean tight binding. To be noted: protein: recombinant; tags: N-terminal polyhistidine and DsRed monomer fusion (pET32a); chain copies: 2; label: CyDye5-dUTP incorporated in the synthesized complementary strand; 3' TTTTT single-stranded linker to array surface; dsDNA, one strand shown. The method, boiled down: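 The binding signal is fluorescence intensity per feature, in arbitrary units, read on an Axon 4000B scanner. Polyhistidine- and DsRed-tagged transcription factors (N-terminal fusions) from E. coli BL21-CodonPlus were purified on Ni–NTA and applied at 200 nM for 1 h at 25 °C to a double-stranded, BSA-blocked custom Agilent array in buffer with 50 µM zinc acetate.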
“AATTAAGATAGGTACACGTGTGGTGGATAAAGATGATCTACGGAGTCACCTAGTGCAG”: the binding signal is 4010 fluorescence intensity (a.u.).

As to “ATTGATCCACCATCTTTCCACGTATGTAAGATTCATGCAACGGAGTCACCTAGTGCAG”, the binding signal was 3940 fluorescence intensity (a.u.).

Regarding “AAATTAAATCCATTTTAGCCACGCACTCAAGTTAGGATTTCGGAGTCACCTAGTGCAG”, the binding signal was 3260 fluorescence intensity (a.u.).

Consider “ATAAATATCTCCACGTGTGCACGAACTCATCCGCCGCACACGGAGTCACCTAGTGCAG”, for which the binding signal was 14600 fluorescence intensity (a.u.).

As for “GAGACACCGACGCGTCACACCACCACGTCCGTTTCCGTACCGGAGTCACCTAGTGCAG”, the binding signal was 9870 fluorescence intensity (a.u.).

For the sequence “TTGTGATTTCCTTAATATAGAATAGAACCCTGCTCATATACGGAGTCACCTAGTGCAG”, the binding signal was 25300 fluorescence intensity (a.u.).

As to “GCAAAATACAAACAAGGCAAGCAGGGAAGAATCCAAGCCGCGGAGTCACCTAGTGCAG”, the binding signal is 7140 fluorescence intensity (a.u.).

Consider “ATTGAATTGCTCTAGTTTCACTCCTTTAATTACCATGTATCGGAGTCACCTAGTGCAG”, for which the binding signal is 3440 fluorescence intensity (a.u.).

Regarding “CAGGCGGCGCACGTGCATGACGTACGCGTCGAATGGTCCGCGGAGTCACCTAGTGCAG”, the binding signal was 8150 fluorescence intensity (a.u.).

Consider “GATGACCATGCCACCAGGTTGGTGCGCCGCCACGATCATGCGGAGTCACCTAGTGCAG”, for which the binding signal was 3320 fluorescence intensity (a.u.).

Regarding “GAATTAGCTTGATTGACAGAAACAAATGGCTACAACTACACGGAGTCACCTAGTGCAG”, the binding signal is 65500 fluorescence intensity (a.u.).

As for “CGAATCTTTTAAGCCTATTTACGCCATGATTTGACAATGTCGGAGTCACCTAGTGCAG”, the binding signal is 3530 fluorescence intensity (a.u.).

With “GTCCGGCCGCCTTGCGCGCCAGCTCCACGCACCGCCGCATCGGAGTCACCTAGTGCAG”, the binding signal is 4300 fluorescence intensity (a.u.).

Take “AGAGTCTCAGATGCACCATTTGGATGGACAAGTGATGTGGCGGAGTCACCTAGTGCAG”: the binding signal is 6180 fluorescence intensity (a.u.).

For “ATCTAACCATGCGTCATTCACAGTTCTTCGTTCTTGTCTTCGGAGTCACCTAGTGCAG”, the binding signal was 4610 fluorescence intensity (a.u.).

Turning to “AAGCAATGATTGGATTTCACGTGGCCTGCCTGCGGAGTAGCGGAGTCACCTAGTGCAG”, the binding signal was 3420 fluorescence intensity (a.u.).

In the case of “ATAGTCTCAATGGCAACATTGCCAACTCATTTGTTTCCATCGGAGTCACCTAGTGCAG”, the binding signal was 5470 fluorescence intensity (a.u.).

Consider “GTTCAGTTGTTGTGTGATAACTCAAGCTGCGTGAGTCGTCCGGAGTCACCTAGTGCAG”, for which the binding signal was 3220 fluorescence intensity (a.u.).

Turning to “CGAATCCACCCACGCAAGCGCGGCGGTGGGCCCCACCTGTCGGAGTCACCTAGTGCAG”, the binding signal is 4420 fluorescence intensity (a.u.).

With “ACTGTAGAACAATTGATAAAGTCACTGGTATATTATAGAACGGAGTCACCTAGTGCAG”, the binding signal is 34800 fluorescence intensity (a.u.).

“ACTTATTCCTAGGCCCAAACACCCGGCTCACATCACATCGCGGAGTCACCTAGTGCAG”: the binding signal was 3340 fluorescence intensity (a.u.).

Take “CTTATATAGAGAAAATTAGCAACATCTACAATACAAAATTCGGAGTCACCTAGTGCAG”: the binding signal is 34600 fluorescence intensity (a.u.).

For the sequence “CTTCGAGCTTTACACGGTGTAAGGATAGAGCAGTAGTATTCGGAGTCACCTAGTGCAG”, the binding signal was 3270 fluorescence intensity (a.u.).

Turning to “CATTGCTAGCGGCTCGACACGTGTCGCCCGGACGAGCCCCCGGAGTCACCTAGTGCAG”, the binding signal was 16600 fluorescence intensity (a.u.).

With “ATTATTTAAGTGATGATATGTAAATAACGAGTGAAGTTTTCGGAGTCACCTAGTGCAG”, the binding signal is 3400 fluorescence intensity (a.u.).

Turning to “AAACATTAATCATGCATGAGCAGTATGCCCGGCAACTGGACGGAGTCACCTAGTGCAG”, the binding signal is 17200 fluorescence intensity (a.u.).

As for “TGCATAAGTGTCCGTACCAGTACGGTCAGAGTGACATATGCGGAGTCACCTAGTGCAG”, the binding signal was 3770 fluorescence intensity (a.u.).

On to “CGCACCCGCACAGCACCACACCACCTGCCTAGCGCCAAGCCGGAGTCACCTAGTGCAG”, for which the binding signal is 3560 fluorescence intensity (a.u.).

Regarding “TTTTAAGAGATAGTTTTCCCGCTAGGCGCCACGACGGAACCGGAGTCACCTAGTGCAG”, the binding signal is 4030 fluorescence intensity (a.u.).

Turning to “TCAACTAGGAGCGCGTGTCACACTGTCAGTCCAGTGGGCCCGGAGTCACCTAGTGCAG”, the binding signal was 3210 fluorescence intensity (a.u.).

Regarding “TATCATGACGGCGGCGTGTTCGATGGAGATAAAATGTGCCCGGAGTCACCTAGTGCAG”, the binding signal is 3170 fluorescence intensity (a.u.).

On to “GATATTTAACCATTTGCCACATTTAGATGTGGCAATTAACCGGAGTCACCTAGTGCAG”, for which the binding signal was 3250 fluorescence intensity (a.u.).

“CGCCATCGCCAACGCCAACGCCTCCGCGGACTCCATTGTCCGGAGTCACCTAGTGCAG”: the binding signal is 3650 fluorescence intensity (a.u.).

For the sequence “ATACATGGTATGTGTGCACACGTCGCATGTCACGTGCTGTCGGAGTCACCTAGTGCAG”, the binding signal is 7850 fluorescence intensity (a.u.).

With “CGATGAGGTACTATACTAACAATGTGCTACTGTCATGCCACGGAGTCACCTAGTGCAG”, the binding signal was 3770 fluorescence intensity (a.u.).

Turning to “CCTACTCCTGTCCGGGGATGAATCCGCCGAGTGTATTATTCGGAGTCACCTAGTGCAG”, the binding signal is 3250 fluorescence intensity (a.u.).

“GCGTGGCGGCGCCGGTGGTGGTGGAGGAGCGCCTGCCACGCGGAGTCACCTAGTGCAG”: the binding signal is 3780 fluorescence intensity (a.u.).

Regarding “GCGGCAGCTCACGGCCTGTGTCACCCAGCAATATGGCTAACGGAGTCACCTAGTGCAG”, the binding signal was 4720 fluorescence intensity (a.u.).

In the case of “GATATAATTGCCACGTAAGCGCCACGTCAATGCCACGTGCCGGAGTCACCTAGTGCAG”, the binding signal is 52100 fluorescence intensity (a.u.).

In the case of “ACTTTCACAAAACTATACACATATCACTTTTCAATAAATACGGAGTCACCTAGTGCAG”, the binding signal was 19900 fluorescence intensity (a.u.).

Regarding “GTGTCGAAGCGGCCATGCCACCTCTCTCTGTTGCGACCATCGGAGTCACCTAGTGCAG”, the binding signal is 3160 fluorescence intensity (a.u.).

Regarding “GATAATTAAGCTGATAGCGAGACATAACAAGCTCTGTTCTCGGAGTCACCTAGTGCAG”, the binding signal is 49600 fluorescence intensity (a.u.).

These data come from publication PMC7819943, “Rice protein-binding microarrays: a tool to detect cis-acting elements near promoter regions in rice”.
